Laboratory results from PubChem BioAssay AID540276 (National Center for Advancing Translational Sciences (NCATS), 2011).
“And” between values parts separate entries of the source, which are not always exact repeats. Equal entries are not always repeated. The whole screen tested about 300,000 compounds, of which about 5,400 (1.8%) were called active. Inconclusive means that the source gave no clear call. Such entries were picked first, then a sample of the others. Calls come from the whole dose curve; tested in HEK293 cells. Where the call is inconclusive, the potency comes from a doubtful curve fit.

experiment: qHTS for inhibitors of binding or entry into cells for Marburg Virus; conditions: Marburg virus pseudotyped entry inhibition, cell reporter; activity change, negative = inhibition: at 37.8 µM (top of the series) unless noted
% is set by controls: 0 for no effect and ±100 for the full control effect; potency is the fitted concentration of half-maximal effect.

| Compound | Potency | activity change, negative = inhibition |
| --- | --- | --- |
| CN1CCN(CC(O)COC(c2ccccc2)c2ccccc2)CC1 (stereo not given) | inconclusive: 10 µM [inhibitor, partial curve, poor fit] | – |
| Cc1cc(C)nc(SCc2nnc(SCC(=O)Nc3ccc(C)c(C)c3)n2Cc2ccco2)n1 | inconclusive: 13 µM [inhibitor, single point] | – |
| COc1ccccc1CNS(=O)(=O)c1cc(C(=O)N(C)Cc2cccnc2)c(Cl)cc1Cl | inconclusive: 12.6 µM [inhibitor, single point] | – |
| CCC(C)(C)n1nnnc1C(c1ccccc1OC)N1CCN(C(=O)c2ccco2)CC1 (stereo not given) | – | inactive: 2.42% [at 46.1 µM] |
| C/C(=N\Nc1ncc(Cl)cc1Cl)c1ccc(S(=O)(=O)NCc2ccco2)cc1 | inconclusive: 3.16 µM [inhibitor, partial curve, poor fit] | – |
| COc1cc(OC)cc(C(=O)N2CC(=O)Nc3ccc(Cl)cc3C2c2ccccc2)c1 (stereo not given) | – | inactive: 16.3% [at 46.1 µM] |
| CC(C)CCNC(=O)CCC(=O)NNc1nc2ccccc2c2nc(-c3ccccc3)nn12 | inconclusive: 11.2 µM [activator, single point] and inconclusive: 3.16 µM [inhibitor, single point] | – |
| O=c1c(Cl)c(NCCO)ncn1-c1ccccc1 | inconclusive: 11.2 µM [activator, partial curve] | – |
| CC(=O)Nc1ccccc1C(=O)OCC(=O)c1ccc2ccccc2c1 | – | inactive: 8.19% |
| CCCCN(C(=O)c1cc(-c2ccco2)nc2ccccc12)c1c(N)n(CCCC)c(=O)[nH]c1=O | – | inactive: -19% [at 46.1 µM] |
| CCN(c1cccc(C)c1)S(=O)(=O)c1ccc2c(c1)oc(=O)n2C | inconclusive: 25.1 µM [inhibitor, single point] | – |
| Cc1nc2ccccc2c2oc(C(=O)NCCN3CCCCC3C)cc12 (stereo not given) | active: 20.6 µM | – |
| Cc1ccc(N(CC(=O)Nc2ccc(Br)cc2)S(=O)(=O)c2cccs2)cc1 | – | inactive: 3.96% [at 46.1 µM] |
| COc1cc(/C=C/c2cc(C(=O)O)c3ccccc3n2)cc(OC)c1O | – | inactive: 1.73% [at 46.1 µM] |
| CCC(C)C(NC(=O)C(CC(C)C)NC(=O)C(CO)NC(=O)C1CCC(=O)N1)C(=O)OC (stereo not given) | – | inactive: -11.9% |
| CCOc1ccccc1OCC(=O)Nc1cccc(S(=O)(=O)N2CCCCCC2)c1 | inconclusive: 7.94 µM [inhibitor, partial curve, poor fit] | – |
| COc1cc(N(C)C)c([N+](=O)[O-])cc1C(=O)N1CCN(Cc2ccccc2)CC1 | – | inactive: -24.4% [at 46.1 µM] |
| COc1ccc(Nc2oc(-c3ccccc3Cl)nc2C#N)cc1 | inconclusive: 29.1 µM [inhibitor, single point] | – |
| CCN(CC)CCCNC(=S)N1CCN(c2nc(-c3ccc(F)cc3)cs2)CC1 | active: 10 µM | – |
| O=C(COc1ccccc1)OCC(=O)c1c[nH]c2ccccc12 | – | inactive: 10.3% |
| Cc1ccccc1C(=O)NC(CC(C)C)C(=O)Nc1ccc(F)c([N+](=O)[O-])c1 (stereo not given) | inconclusive: 20 µM [inhibitor, single point] | – |
| COc1cc(SC)ccc1C(=O)OCC(=O)NC1CCCCC1 | inconclusive: 35.5 µM [activator, single point] | – |
| CC(=O)c1ccc(NC(=O)[C@@H]2CCCN2C(=O)OC(C)(C)C)cc1 | inconclusive: 35.5 µM [activator, single point] | – |
| COc1cccc(CNC(=O)C2CC(=O)N(c3ccc4c(c3)OCCO4)C2)c1 (stereo not given) | inconclusive: 5.62 µM [activator, single point] | – |

| Compound | Potency | activity change, negative = inhibition |
| --- | --- | --- |
| COc1ccc(OCCSc2nnc3c(Cl)cc(Cl)cn23)cc1 | inconclusive: 2.51 µM [inhibitor, partial curve, poor fit] | – |
| COc1ccc(-c2nn(-c3ccccc3)cc2C(=O)n2nnc3ccccc32)cc1 | – | inactive: 7.67% |
| OC(COCc1ccc(Cl)cc1)CN1CCN(CC(O)COCc2ccc(Cl)cc2)CC1 (stereo not given) | inconclusive: 32.6 µM [inhibitor, single point] | – |
| CC(C)C1CC(CCN2CCCCC2)(c2ccccc2)CCO1 (stereo not given) | inconclusive: 7.3 µM [inhibitor, partial curve, poor fit] | – |
| CN1CCN(C(=O)c2ccc3c(=O)n(Cc4ccc(Cl)cc4)c(=S)[nH]c3c2)CC1 | inconclusive: 29.1 µM [inhibitor, single point] | – |
| CC12CCC(C(=O)NCCCn3ccnc3)(OC1=O)C2(C)C (stereo not given) | inconclusive: 5.62 µM [activator, full curve] | – |
| Cc1ccc(/C=C2\SC(N3CCCCC3)=NC2=O)cc1 | – | inactive: 9.97% |
| Cc1ccc(N(C(=O)c2csnn2)C(C(=O)NC2CCCCC2)c2ccncc2)cc1 (stereo not given) | inconclusive: 6.31 µM [inhibitor, single point] | – |
| COC(=O)CSc1nnc(-c2cccnc2)n1C | inconclusive: 12.6 µM [inhibitor, single point] | – |
| CCOc1ccc(C2CC(=O)N(c3cccc(F)c3)C3=C2C(=O)OC3)cc1 (stereo not given) | – | inactive: 4.67% [at 46.1 µM] |
| Cc1ccc(NC(=S)NNC(=O)c2nn(C)c(C)c2Cl)cc1 | – | inactive: 3.38% |
| CCC1CCCCN1S(=O)(=O)c1ccc(S(=O)(=O)N(Cc2cccs2)C2CC2)cc1 (stereo not given) | inconclusive: 29.1 µM [inhibitor, single point] | – |
| COc1ccc(OC)c(NC(=O)NC2CCCc3ccccc32)c1 (stereo not given) | inconclusive: 11.2 µM [inhibitor, partial curve, poor fit] | – |
| Cc1ccc2nc(NC(=O)c3ccccc3F)sc2c1 | inconclusive: 11.2 µM [inhibitor, single point] | – |
| COCCOC(=O)c1c(C)oc2ccc(OC(=O)c3ccco3)cc12 | – | inactive: 21.6% |
| COc1ccccc1C(=O)OCC(=O)c1cccc([N+](=O)[O-])c1 | – | inactive: 0.837% |
| CCC(C)c1c(N)n(S(=O)(=O)c2ccc(C)cc2)oc1=O (stereo not given) | inconclusive: 8.91 µM [inhibitor, single point] | – |
| CCOCCCN(C(=O)c1snc(C(N)=O)c1N)C(C(=O)NC1CCCC1)c1ccc(OC)cc1 (stereo not given) | inconclusive: 7.08 µM [inhibitor, partial curve, poor fit] | – |
| N#CC1C(=O)NC(=O)C(C#N)C12CCCC(C(F)(F)F)C2 (stereo not given) | – | inactive: 10.9% |
| Cc1ccc(NC(=O)c2ccc(=O)[nH]n2)cc1C | inconclusive: 5.62 µM [activator, single point] | – |
| O=C(O/N=C1\CCCc2ccccc21)c1ccc(F)cc1 | inconclusive: 2.06 µM [inhibitor, single point] | – |
| COc1cccc(N2CCN(C3CC(=O)N(c4ccc(F)c(Cl)c4)C3=O)CC2)c1 (stereo not given) | – | inactive: 2.8% [at 46.1 µM] |
| Cc1cccc(-c2noc(CCC(=O)NCCc3ccccc3)n2)c1 | – | inactive: 0.112% [at 46.1 µM] |
| O=C(NC1CCC(c2ccccc2)CC1)c1cccnc1 (stereo not given) | inconclusive: 3.55 µM [activator, single point] | – |

4 successive records from above:

| Compound | Potency | activity change, negative = inhibition |
| --- | --- | --- |
| Cc1ccc(N(C(=O)c2csnn2)C(C(=O)NC2CCCCC2)c2ccncc2)cc1 (stereo not given) | inconclusive: 6.31 µM [inhibitor, single point] | – |
| COC(=O)CSc1nnc(-c2cccnc2)n1C | inconclusive: 12.6 µM [inhibitor, single point] | – |
| CCOc1ccc(C2CC(=O)N(c3cccc(F)c3)C3=C2C(=O)OC3)cc1 (stereo not given) | – | inactive: 4.67% [at 46.1 µM] |
| Cc1ccc(NC(=S)NNC(=O)c2nn(C)c(C)c2Cl)cc1 | – | inactive: 3.38% |

Additional results.

| Compound | Potency | activity change, negative = inhibition |
| --- | --- | --- |
| Cn1c(SCC(=O)c2ccccc2)nnc1-c1cccnc1 | – | inactive: -1.89% |
| CC(NC(=O)C1CCC(C(C)(C)C)CC1)C(c1ccccc1)N1CCOCC1 (stereo not given) | inconclusive: 3.98 µM [inhibitor, single point] | – |
| CC(C)c1ccc(NS(=O)(=O)c2ccc3nc(-c4ccccc4)[nH]c3c2)cc1 | inconclusive: 1.58 µM [inhibitor, partial curve, poor fit] | – |
| CCNC(=O)CN(c1ccc(Cl)cc1)S(=O)(=O)c1ccccc1 | active: 1.16 µM | – |
| O=c1c2ccccc2nc(N/N=C/c2ccc(O)cc2)n1O | – | inactive: -20.5% |
| O=C(CNc1cccc(S(=O)(=O)N2CCCC2)c1)Nc1ccc(F)cc1F | inconclusive: 1.26 µM [activator, single point] | – |
| COc1ccc(CCNC(=O)c2ccc(Cn3c(=O)c4ccccc4n(Cc4cccc(Cl)c4)c3=O)cc2)cc1OC | inconclusive: 17.8 µM [inhibitor, partial curve, poor fit] | – |
| C/C(CC(=O)Nc1ccc2c(c1)OCO2)=N\NC(=O)c1ccc(N)cc1 | inconclusive: 35.5 µM [activator, single point] | – |
| CO/N=C\C(=N\Nc1ccc(OC)cc1)C(=O)c1ccccc1 | inconclusive: 2.82 µM [activator, full curve, poor fit] | – |
| Cc1ccc(Sc2nc(-c3ccccc3)ccc2C#N)cc1 | inconclusive: 16.4 µM [activator, partial curve, poor fit] | – |
| COc1ccccc1C(=O)NN1C(=O)C2C3C=CC(O3)C2C1=O (stereo not given) | inconclusive: 17.8 µM [activator, partial curve, poor fit] | – |
| O=C(CSc1ccc(Cl)cc1)N1CCC(c2nc3ccccc3s2)CC1 | inconclusive: 35.5 µM [inhibitor, single point] | – |
| CN(Cc1ccccc1)C(=O)CCS(=O)(=O)c1ccc2c(c1)n(C)c(=O)c(=O)n2C | – | inactive: 0.596% |
| N#Cc1cccc(N=Cc2c(O)ccc3ccccc23)c1 | – | inactive: -21.4% |
| O=Cc1cnc(N2CCOCC2)nc1 | inconclusive: 17.8 µM [inhibitor, partial curve, poor fit] | – |
| Clc1cccc(N/N=C(\Cc2nc3ccccc3[nH]2)c2ccccc2)c1 | inconclusive: 25.1 µM [inhibitor, single point] | – |
| COc1cc2c(c(NC(C)=O)c1)N(C(C)=O)CCC2 | inconclusive: 0.282 µM [inhibitor, partial curve, poor fit] | – |
| CN(C)C(/C=C/Nc1ccc([N+](=O)[O-])cc1)=C(C#N)C#N | – | inactive: -19% [at 46.1 µM] |
| O=[N+]([O-])c1ccc(/C=N\N2CCN(c3ccc(Cl)cc3)CC2)cc1 | – | inactive: -4.09% |
| CSc1ccccc1C(=O)C1CCCN(S(=O)(=O)c2c(C)noc2C)C1 (stereo not given) | inconclusive: 3.16 µM [inhibitor, single point] | – |
| Cc1cn(C2CCCCO2)c(=O)nc1NO (stereo not given) | inconclusive: 12.6 µM [inhibitor, partial curve, poor fit] | – |
| O=C(c1ccccc1Cl)N1CCCCC1CCN1CCCCC1 (stereo not given) | – | inactive: 8.02% [at 46.1 µM] |
